Some of the results follow. Further columns of the screen follow, without active or inactive calls. The list favours compounds with an active or inconclusive main result. The note in brackets gives the kind of curve behind each potency; many fits are weak.
Assay: Cell signaling CRE-BLA (Fsk stim)
Details: CHO CRE-bla reporter (cAMP response element driving beta-lactamase), forskolin EC10, beta-lactamase ratio; measured here: 460 nm blue channel
Outline: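 Titrated compounds plus EC10 NKH 477 on CHO CRE-bla cells, 3 h, 37 °C. CCF4, 2 h RT. Ratio 460/530 nm → AC50.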

| Structure (SMILES) | AC50 |
| --- | --- |
| CC(C)(C)Oc1ncc(Br)c(OC(C)(C)C)n1 | 5.01 µM [falling, single point] |
| O=C(c1ccco1)n1nc(NCc2ccccc2)nc1NCc1ccccc1 | 12.6 µM [rising, single point] |
| COc1ccc(-c2[nH]ncc2Oc2ccccc2OC)c(O)c1 | 20 µM [falling, single point] |
| COc1ccccc1Nc1nc(N)nc(CSc2nc(C)cc(C)n2)n1 | 10 µM [rising, partial curve] |
| O=C(CCCn1c(=O)c2ccccc2n(CC(=O)NCc2ccco2)c1=O)NCc1ccco1 | 0.2 µM [falling, full curve] |
| CCNc1ncc2nc(-c3cc(F)cc(F)c3)c(=O)n(CCC#N)c2n1 | 5.01 µM [rising, partial curve] |
| COc1ccc(N=C2SC(CC(=O)Nc3ccccc3)C(=O)N2CC2CCCO2)cc1 (stereo unspecified) | 10 µM [falling, partial curve] |
| O=C(c1ccccc1)c1cccn1CC(=O)N1CCN(C2CCCCC2)CC1 | 0.0316 µM [falling, full curve] |
| Cn1c(=O)cc(N2CCc3ccccc32)[nH]c1=O | 10 µM [rising, single point] |
| Cc1cccc2cc(CN(Cc3ccc(F)cc3)C(=O)N(C)C)c3nnnn3c12 | 1 µM [rising, full curve] |
| CC1(C)NC(=O)N(CC(O)CN2C(=O)NC(C)(C)C2=O)C1=O | 25.1 µM [falling, single point] |
| Cc1cccc(-n2nnc(C(=O)NCc3ccco3)c2N)c1 | 0.01 µM [falling, full curve, poor fit] |
| CCOC(=O)c1sc(NC(NC(=O)c2ccco2)(C(=O)OC)C(F)(F)F)nc1C (stereo unspecified) | 12.6 µM [rising, partial curve] |
| COc1ccc(N2CCN(c3ccc(NC(=O)c4ccc5c(c4)OCO5)cc3C#N)CC2)cc1 | 0.00398 µM [falling, full curve, poor fit] |
| COc1ccc(OC)c2[nH]c(=O)c(CCNS(=O)(=O)c3ccc(C)cc3)cc12 | 2 µM [rising, single point] |
| CCCc1noc2c1C(c1ccoc1)C(C#N)=C(N)N2 (stereo unspecified) | 0.158 µM [falling, partial curve] |
| COc1ccc2[nH]cc(C(=O)CN3CCCCC3)c2c1 | 6.31 µM [falling, partial curve, poor fit] |
| Cc1ccc(S(=O)(=O)NCc2ccncc2)cc1 | 0.1 µM [falling, partial curve, poor fit] |
| N#Cc1cccc(NC(=O)c2nc(-c3ccccc3)n(-c3ccccc3)n2)c1 | 20 µM [falling, single point] |
| O=c1[nH]c2cc(Cl)ccc2c(O)c1-c1cccc(Oc2ccccc2)c1 | 15.8 µM [falling, partial curve, poor fit] |
| COc1ccc(C2CC(=O)c3cnc(NC(=O)c4ccccc4)nc3C2)c(OC)c1 (stereo unspecified) | 10 µM [rising, single point] |
| Nc1c(C(=O)NC2CCCC2)c2nc3ccccc3nc2n1N | 10 µM [rising, partial curve] |

Laid out differently: entries from further up.
CC1(C)NC(=O)N(CC(O)CN2C(=O)NC(C)(C)C2=O)C1=O
  AC50: 25.1 µM [falling, single point]
Cc1cccc(-n2nnc(C(=O)NCc3ccco3)c2N)c1
  AC50: 0.01 µM [falling, full curve, poor fit]
CCOC(=O)c1sc(NC(NC(=O)c2ccco2)(C(=O)OC)C(F)(F)F)nc1C (stereo unspecified)
  AC50: 12.6 µM [rising, partial curve]
COc1ccc(N2CCN(c3ccc(NC(=O)c4ccc5c(c4)OCO5)cc3C#N)CC2)cc1
  AC50: 0.00398 µM [falling, full curve, poor fit]

Later entries

| Structure (SMILES) | AC50 |
| --- | --- |
| COc1ccccc1CNC(=O)c1cnc2sccn2c1=O | 10 µM [rising, partial curve] |
| Cn1c(=O)[nH]c(=O)c2c1ncn2CCCc1ccccc1 | 12.6 µM [rising, single point] |
| CCN(CCCNC(=O)CCc1nc(-c2ccc(C)cc2)no1)c1cccc(C)c1 | 0.00316 µM [falling, full curve, poor fit] |
| Cc1cc(NC(=O)c2ccc(S(=O)(=O)N(C)C)cc2)no1 | 0.2 µM [falling, partial curve] |
| Brc1ccc(-c2nn3c(-c4ccco4)nnc3s2)o1 | 2.51 µM [falling, partial curve] |
| COc1ccccc1CNc1ncnc2ccc(-c3ccccc3C#N)cc12 | 2 µM [rising, partial curve] |
| CCOC(=O)c1[nH]c(C)c(C(=O)Nc2cc(Cl)ccc2C)c1C | 7.94 µM [rising, partial curve] |
| CC(C)Cn1cc(C(=O)N2CCN(c3ccccn3)CC2)c2c3ccccc3n(C)c2c1=O | 0.0794 µM [rising, single point] |
| CC1CCCCC1NC(=O)CSc1nncs1 (stereo unspecified) | 5.01 µM [falling, single point] |
| CCN(CC)S(=O)(=O)c1ccc(N2CCCC2)c(C(=O)OCC(=O)/C(C#N)=C(\C)N)c1 | 10 µM [rising, partial curve] |
| CCN(CC)S(=O)(=O)c1ccc2oc(C(=O)NC(C)C)c(C)c2c1 | 12.6 µM [rising, single point] |
| COc1ccc(CCn2c(NCc3ccco3)nc3c2c(=O)[nH]c(=O)n3C)cc1 | 3.98 µM [falling, partial curve] |
| Cc1cc2occ(CC(=O)O)c2cc1C | 5.01 µM [falling, partial curve, poor fit] |
| C=CCn1cnc2c(c1=O)c1nc3ccccc3nc1n2/N=C/c1cc(OC)c(OC)c(OC)c1 | 6.31 µM [rising, partial curve] |
| Cc1c(-c2ccccc2)nc(N)c(C#N)c1-c1ccco1 | 15.8 µM [rising, partial curve] |
| CCOC(=O)C1=C[C@@]2(CC)CCCN3CCc4c(n1c1ccccc41)[C@H]32 | 31.6 µM [falling, single point] |
| Cc1cnc(CNc2nc(-c3ccc4c(c3)OCO4)nc3ccccc23)cn1 | 10 µM [rising, partial curve] |
| COCCn1c(=O)c(-c2ccc(OC)cc2)nc2cnc(N3CCOCC3)nc21 | 2.51 µM [rising, full curve] |
| Cn1c(N2CCOCC2)nc(-c2ccccc2)c1-c1ccccc1 | 10 µM [rising, single point] |
| CC(C)C(NC(=O)C1CCCCC1)C(=O)NC1CCN(Cc2ccccc2)CC1 (stereo unspecified) | 0.794 µM [falling, full curve] |
| CC1(C)C(c2ccc(Cl)cc2)=[N+]([O-])C2(CCCC/C2=N\O)N1O (stereo unspecified) | 0.00316 µM [falling, full curve, poor fit] |
| C=CCOC(=O)C1=C(C)NC(SC)=C(C#N)C1c1ccc(OCC)cc1 (stereo unspecified) | 12.6 µM [falling, partial curve] |

An excerpt from above in order of heavy-atom count, low to high.

| Structure (SMILES) | AC50 |
| --- | --- |
| Brc1ccc(-c2nn3c(-c4ccco4)nnc3s2)o1 | 2.51 µM [falling, partial curve] |
| CCOC(=O)c1[nH]c(C)c(C(=O)Nc2cc(Cl)ccc2C)c1C | 7.94 µM [rising, partial curve] |
| C=CCn1cnc2c(c1=O)c1nc3ccccc3nc1n2/N=C/c1cc(OC)c(OC)c(OC)c1 | 6.31 µM [rising, partial curve] |

Going on with the list.

| Structure (SMILES) | AC50 |
| --- | --- |
| O=C(c1cccc(S(=O)(=O)N2CCCC2)c1)c1cccc(S(=O)(=O)N2CCCC2)c1 | 0.398 µM [rising, full curve] |
| Cc1cc(C)n(-c2ccc(C(=O)Nc3ccccc3N3CCOCC3)cc2)n1 | 25.1 µM [rising, single point] |
| CC1CCC(C(=O)O)([C@H](Br)C(=O)O)CC1 (stereo partly specified) | 0.000794 µM [falling, full curve, poor fit] |
| O=C(CCCN1CCC(O)(c2ccc(Cl)cc2)CC1)c1ccc(F)cc1 | 25.1 µM [falling, partial curve] |
| COc1ccc(C(c2nnnn2C2CCCCC2)N2CCN(c3ccc(OC)cc3)CC2)cc1 (stereo unspecified) | 10 µM [rising, partial curve] |
| CC(=O)Nc1ccc(OCC(O)CN2CCN(c3cc(Cl)ccc3C)CC2)cc1 (stereo unspecified) | 0.0631 µM [falling, full curve, poor fit] |
| Cc1ccc2cc(CCNC(=O)c3ccco3)c(=O)[nH]c2c1C | 10 µM [falling, partial curve] |
| Cc1nn(Cc2ccc(Cl)cc2)c(C)c1NC(=O)C1CC=CCC1C(=O)O (stereo unspecified) | 0.398 µM [falling, full curve] |
| CCOC(=O)CSc1nc(N)c(C#N)c(-c2cccs2)c1C#N | 10 µM [rising, partial curve] |
| CCOC(=O)N1CCC(NC(=O)c2cc(C(=O)Nc3ccc(OC)c(OC)c3)ccc2CO)CC1 | 1.58 µM [rising, partial curve] |
| O=C1C(=O)N(CCCN2CCOCC2)C(c2ccccn2)/C1=C(\O)c1ccc2c(c1)OCCO2 (stereo unspecified) | 5.01 µM [falling, partial curve] |
| CCCCC(=O)Nc1nn(C)c2nc3c(C)cccc3cc12 | 0.794 µM [rising, full curve] |
| Brc1cccc(-c2nnc3n2CCC3)c1 | 5.01 µM [falling, single point] |
| CN(C)CCN1C(=O)C(=O)/C(=C(/O)c2ccc(S(=O)(=O)N3CCOCC3)cc2)C1c1ccccc1 (stereo unspecified) | 0.00398 µM [falling, full curve, poor fit] |
| COc1ccc(-n2c(Cc3cccn3C)nnc2SCC(=O)Nc2ccc3c(c2)OCCO3)cc1 | 2.51 µM [falling, full curve] |
| CCCn1c(=NC(=O)c2ccco2)c(C(=O)OCC)cc2c(=O)n3ccccc3nc21 | 12.6 µM [rising, partial curve] |
| Cc1cc(C(=O)CSc2n[nH]c(N)n2)c(C)n1-c1cccc(F)c1 | 15.8 µM [rising, single point] |
| COc1cccc(NC(=O)CSc2nnc(-c3cc(C)n(-c4ccccc4)c3C)o2)c1 | 10 µM [rising, single point] |
| c1ccc(-c2nc(N3CCOCC3)c3ccccc3n2)nc1 | 12.6 µM [rising, single point] |
| CCOC(=O)CCc1c(C)c2ccc(OCC(=O)OC(C)C)cc2oc1=O | 10 µM [rising, single point] |
| O=C(c1ccco1)N1CCN(c2c(-c3ccccc3)c3cc(Cl)ccc3[nH]c2=O)CC1 | 10 µM [falling, partial curve] |
| COc1cccc(-c2cc(C(=O)NCc3ccco3)no2)c1 | 0.00501 µM [falling, full curve, poor fit] |

Reference: PubChem BioAssay AID662 (National Center for Advancing Translational Sciences (NCATS), 2007)
